# Measured values published in PubChem BioAssay AID540276 (National Center for Advancing Translational Sciences (NCATS), 2011).
# Among all 300,000 compounds or so, about 5,400 (1.8%) were called active. Inconclusive results, whose numbers are uncertain, are shown with a selection of clear calls. Calls come from the whole dose curve; tested in HEK293 cells. A potency beside an inconclusive call is a rough fit, not a confirmed value.
# Experiment: qHTS for inhibitors of binding or entry into cells for Marburg Virus
# Conditions: Marburg virus pseudotyped entry inhibition, cell reporter; activity change, negative = inhibition: at 37.8 µM (top of the series) unless noted
# % is set by controls: 0 for no effect and ±100 for the full control effect; potency is the fitted concentration of half-maximal effect.
SMILES,"activity change, negative = inhibition",Potency
FC(F)(F)c1cccc(NC(=S)Nc2ccc(Cl)cc2Cl)c1,inactive: -25.9%,–
O=C(COC(=O)c1cc(=O)[nH]c2ccccc12)NC(=O)NC1CCCCC1,–,"inconclusive: 0.282 µM [inhibitor, full curve, poor fit]"
CCOc1ccc(CCNC(=O)COC(=O)c2ccc(OC(C)C)cc2)cc1OCC,inactive: -1.41%,–
O=C(Nc1ncc(Cc2ccc(Cl)cc2Cl)s1)c1ccc([N+](=O)[O-])cc1,–,"inconclusive: 3.55 µM [inhibitor, partial curve, poor fit]"
COc1ccc(C(=O)Nc2ccccc2C(N)=O)cc1,inactive: 25%,–
CCn1nnc(NC(=S)NC(=O)c2ccc(-c3cccc(Cl)c3)o2)n1,–,"inconclusive: 6.31 µM [activator, single point]"
CC1CC1c1ccc(/C=C(\C#N)C(=O)Nc2cccc(Cl)c2Cl)o1 (stereo not drawn),–,"inconclusive: 35.5 µM [activator, single point]"
C=CCn1c(SCC(=O)N2CCOCC2)nc2scc(-c3ccco3)c2c1=O,inactive: -13.4%,–
COc1ccccc1-c1c(C)nn2c(-c3ccccc3)cc(C)nc12,–,"inconclusive: 6.31 µM [inhibitor, partial curve, poor fit]"
CCC(C)(C)NC(=O)C(c1ccc(OC)cc1)N(C(=O)CCC(=O)Nc1cc(C)on1)c1cccc(OC)c1 (stereo not drawn),–,"inconclusive: 3.55 µM [inhibitor, single point]"
COc1ccc(C(C[N+](=O)[O-])c2c(-c3ccccc3)cc3ccccn23)cc1OC (stereo not drawn),–,"inconclusive: 0.501 µM [inhibitor, partial curve, poor fit]"
O=C(NC(=S)Nc1cc(C(F)(F)F)ccc1N1CCOCC1)c1ccco1,–,"inconclusive: 0.891 µM [inhibitor, full curve, poor fit]"
Cc1ccc2c(C)nc(Nc3nc(CSc4nnc(C)s4)cc(=O)[nH]3)nc2c1,inactive: -3.65%,–
O=[N+]([O-])c1ccc(N=NNc2ccccc2)cc1,inactive: 24.5%,–
O=C(N/N=C\c1cc([N+](=O)[O-])ccc1N1CCOCC1)c1ccccn1,–,"inconclusive: 7.08 µM [inhibitor, partial curve, poor fit]"
COCC(C)n1c(SCc2nc3ccccc3c(=O)[nH]2)nc2ccccc2c1=O (stereo not drawn),–,"inconclusive: 35.5 µM [inhibitor, single point]"
Cc1nn(Cc2ccccc2Cl)c(C)c1NC(=O)CCCn1nc([N+](=O)[O-])c(Cl)c1C,inactive: 3.31%,–
COc1ccccc1OCc1ccc(C(=O)NCC(C)C)o1,–,"inconclusive: 35.5 µM [inhibitor, single point]"
CCOC(=O)c1nc(NCc2ccccc2F)c2ccccc2n1,inactive: -11.5% [at 46.1 µM],–
CCc1ccc(C2C(=O)c3ccccc3C2=O)cc1,–,"inconclusive: 2.82 µM [activator, single point]"
O=C(NN=Cc1ccc2c(c1)OCO2)C1CC1,–,"inconclusive: 1 µM [activator, full curve, poor fit]"
COc1ccc(CCn2c(Br)nc3c2c(=O)[nH]c(=O)n3C)cc1,–,"inconclusive: 3.66 µM [inhibitor, full curve]"

SMILES,"activity change, negative = inhibition",Potency
O=C(N=C1c2ccccc2CN1c1ccc(F)c(F)c1)c1cccnc1,–,"inconclusive: 35.5 µM [inhibitor, single point]"
O=C(NCc1ccccc1)C(c1ccncc1)N(C(=O)c1csnn1)c1cccc(F)c1 (stereo not drawn),–,"inconclusive: 5.62 µM [inhibitor, single point]"
CCOc1cc(N2CCOCC2)c(OCC)cc1NC(=O)c1cccc(N(C)C)c1,–,"inconclusive: 2.24 µM [inhibitor, partial curve, poor fit]"
CC(C)(C)C(=O)Nc1ccccc1N1CCN(C(=O)c2ccc(Cl)cc2)CC1,–,"inconclusive: 2.24 µM [inhibitor, partial curve, poor fit]"
O=C1C(Cc2ccc(O)cc2)NC(=S)N1c1ccccc1 (stereo not drawn),–,"inconclusive: 29.1 µM [activator, partial curve, poor fit]"
Cc1cccc(C(=O)N2CCC(Cc3ccccc3)CC2)c1[N+](=O)[O-],–,"inconclusive: 0.355 µM [activator, partial curve, poor fit]"
O=C(NC1CCCCC1)N(Cc1nc2ccccc2c(=O)[nH]1)C1CCCC1,–,"inconclusive: 0.631 µM [inhibitor, full curve, poor fit]"
Cc1cccc(Nc2ncnc3ccc(Br)cc23)c1,–,"inconclusive: 10 µM [inhibitor, partial curve, poor fit]"
S=C(NCCSCc1ccc(Cl)c(Cl)c1)Nc1ccccc1,–,"inconclusive: 25.1 µM [inhibitor, single point]"
Cc1cc(C(=O)Nc2ccccc2C(F)(F)F)no1,inactive: 9.61%,–
COc1cc2[nH]c3c(=O)n(CCN4CCCCC4)cnc3c2cc1OC,–,"inconclusive: 25.1 µM [inhibitor, single point]"
O=C(/C=C/c1cccs1)c1cc(Cl)ccc1OC(=O)N1CCOCC1,–,"inconclusive: 12.6 µM [inhibitor, partial curve, poor fit]"
O=C(N/N=C/c1ccc2c(c1)OCO2)c1ccc2c(c1)OCCO2,–,"inconclusive: 3.16 µM [inhibitor, single point]"
CC(=O)C(=Nc1ccc(Cl)cc1Cl)NNc1cccc(Cl)c1,–,"inconclusive: 35.5 µM [inhibitor, single point]"
O=C(/C(C=Nc1ccc(Br)cc1)=C(/O)c1ccco1)C(F)(F)F,–,"inconclusive: 10 µM [inhibitor, partial curve, poor fit]"
Cc1cc(C)c(NC(=O)Cn2nnc(C(=O)NCCc3ccccc3)c2N)c(C)c1,inactive: 12.2% [at 46.1 µM],–
CC(C)CCNC(=O)c1ccc(C2SCC(=O)N2Cc2ccco2)cc1 (stereo not drawn),inactive: -1.54%,–
CCN(CC)S(=O)(=O)c1cccc(C(=O)N/N=C(\C)c2ccc(O)cc2O)c1,–,active: 7.94 µM
Cc1cc(C)c2c(N)c(C(=O)NCC3CCCCC3)sc2n1,–,"inconclusive: 6.31 µM [activator, single point]"
C[C@@H](NCCc1ccc(O)cc1)[C@@H](O)c1ccc(O)cc1,–,inactive
CCc1ccc(-n2c(SCc3cc(=O)n4cc(Br)ccc4n3)nc3[nH]ncc3c2=O)cc1,–,"inconclusive: 22.4 µM [inhibitor, single point]"

# An excerpt of these results, with bars between the fields.
SMILES | activity change, negative = inhibition | Potency
O=C(Nc1ncc(Cc2ccc(Cl)cc2Cl)s1)c1ccc([N+](=O)[O-])cc1 | – | inconclusive: 3.55 µM [inhibitor, partial curve, poor fit]
COc1ccc(C(=O)Nc2ccccc2C(N)=O)cc1 | inactive: 25% | –
